The supplement of paper PMC6411743
± gives the standard deviation of the averaged measurements. The entries are a selection whose mix differs from that of the whole data set. Most values lie at the level of the controls, where differences are scatter.

The chains behind the UniProt entries cited, without tags or fusion partners. Where a name states a change or a piece, a line headed by the entry shows the natural chain unless it says otherwise.
UniProt Q9BVT8: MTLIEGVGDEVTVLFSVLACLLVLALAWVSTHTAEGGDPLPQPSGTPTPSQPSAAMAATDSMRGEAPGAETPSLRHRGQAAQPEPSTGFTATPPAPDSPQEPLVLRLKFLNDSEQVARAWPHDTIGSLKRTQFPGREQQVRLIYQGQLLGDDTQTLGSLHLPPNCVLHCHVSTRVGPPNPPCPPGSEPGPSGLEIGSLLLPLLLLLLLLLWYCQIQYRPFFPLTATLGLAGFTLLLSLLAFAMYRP
UniProt A5YKK6, whole entry: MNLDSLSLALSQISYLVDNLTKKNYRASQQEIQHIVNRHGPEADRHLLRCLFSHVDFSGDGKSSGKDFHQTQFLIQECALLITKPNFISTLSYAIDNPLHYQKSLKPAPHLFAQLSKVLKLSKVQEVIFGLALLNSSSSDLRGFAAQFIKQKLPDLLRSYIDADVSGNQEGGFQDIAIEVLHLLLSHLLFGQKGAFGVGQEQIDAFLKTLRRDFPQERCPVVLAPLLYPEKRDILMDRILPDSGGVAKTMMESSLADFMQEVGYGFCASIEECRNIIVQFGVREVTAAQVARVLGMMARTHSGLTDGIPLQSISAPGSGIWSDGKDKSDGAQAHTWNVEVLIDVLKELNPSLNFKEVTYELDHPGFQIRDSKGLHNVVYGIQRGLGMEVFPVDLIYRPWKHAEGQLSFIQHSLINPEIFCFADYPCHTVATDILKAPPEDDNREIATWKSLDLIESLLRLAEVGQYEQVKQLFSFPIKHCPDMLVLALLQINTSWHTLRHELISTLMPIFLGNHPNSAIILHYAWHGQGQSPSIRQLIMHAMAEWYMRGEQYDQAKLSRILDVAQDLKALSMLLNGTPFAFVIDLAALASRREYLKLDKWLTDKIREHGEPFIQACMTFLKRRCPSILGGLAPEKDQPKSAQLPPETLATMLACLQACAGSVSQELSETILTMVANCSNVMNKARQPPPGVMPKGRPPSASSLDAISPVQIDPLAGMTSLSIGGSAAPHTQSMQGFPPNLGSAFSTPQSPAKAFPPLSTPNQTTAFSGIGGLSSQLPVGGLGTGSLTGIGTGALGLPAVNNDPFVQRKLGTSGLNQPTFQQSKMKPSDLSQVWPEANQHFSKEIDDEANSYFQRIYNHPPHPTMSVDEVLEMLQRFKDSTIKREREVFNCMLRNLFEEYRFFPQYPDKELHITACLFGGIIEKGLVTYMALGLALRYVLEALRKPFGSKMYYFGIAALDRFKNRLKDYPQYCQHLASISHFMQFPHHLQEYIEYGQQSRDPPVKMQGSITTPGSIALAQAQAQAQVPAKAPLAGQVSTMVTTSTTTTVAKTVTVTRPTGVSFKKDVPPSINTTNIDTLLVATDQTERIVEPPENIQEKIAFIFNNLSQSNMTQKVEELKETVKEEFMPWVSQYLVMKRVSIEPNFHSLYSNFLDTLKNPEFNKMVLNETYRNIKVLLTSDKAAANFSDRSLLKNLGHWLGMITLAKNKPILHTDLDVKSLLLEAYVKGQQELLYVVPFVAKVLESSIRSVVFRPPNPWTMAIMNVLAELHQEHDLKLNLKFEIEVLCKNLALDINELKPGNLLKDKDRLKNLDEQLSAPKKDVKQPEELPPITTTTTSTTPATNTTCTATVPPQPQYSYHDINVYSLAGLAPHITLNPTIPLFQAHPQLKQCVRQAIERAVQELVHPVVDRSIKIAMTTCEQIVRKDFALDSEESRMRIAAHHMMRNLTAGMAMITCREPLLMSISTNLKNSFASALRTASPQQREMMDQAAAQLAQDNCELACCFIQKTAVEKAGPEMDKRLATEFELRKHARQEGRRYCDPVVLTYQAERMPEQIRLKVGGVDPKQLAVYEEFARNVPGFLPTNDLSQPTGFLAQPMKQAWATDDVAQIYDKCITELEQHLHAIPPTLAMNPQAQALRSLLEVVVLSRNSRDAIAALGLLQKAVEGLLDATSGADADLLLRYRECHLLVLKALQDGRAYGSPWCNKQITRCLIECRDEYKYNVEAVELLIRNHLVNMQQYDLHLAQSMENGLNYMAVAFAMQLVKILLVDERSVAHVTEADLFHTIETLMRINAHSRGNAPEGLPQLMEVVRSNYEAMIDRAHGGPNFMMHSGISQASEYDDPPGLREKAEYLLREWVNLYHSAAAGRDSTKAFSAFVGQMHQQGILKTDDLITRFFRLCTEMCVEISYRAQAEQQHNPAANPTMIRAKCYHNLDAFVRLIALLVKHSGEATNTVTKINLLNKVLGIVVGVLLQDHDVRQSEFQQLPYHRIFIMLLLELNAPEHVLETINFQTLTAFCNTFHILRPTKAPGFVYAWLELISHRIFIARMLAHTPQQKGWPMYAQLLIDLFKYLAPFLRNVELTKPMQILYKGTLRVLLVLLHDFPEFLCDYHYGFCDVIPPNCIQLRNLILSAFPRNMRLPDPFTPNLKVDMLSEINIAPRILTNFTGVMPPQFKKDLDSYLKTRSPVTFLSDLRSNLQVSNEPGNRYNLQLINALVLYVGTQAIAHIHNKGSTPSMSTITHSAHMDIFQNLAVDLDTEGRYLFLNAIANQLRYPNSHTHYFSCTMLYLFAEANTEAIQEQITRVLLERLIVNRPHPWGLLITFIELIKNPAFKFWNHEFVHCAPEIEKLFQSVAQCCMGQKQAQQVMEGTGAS
UniProt A3KN83: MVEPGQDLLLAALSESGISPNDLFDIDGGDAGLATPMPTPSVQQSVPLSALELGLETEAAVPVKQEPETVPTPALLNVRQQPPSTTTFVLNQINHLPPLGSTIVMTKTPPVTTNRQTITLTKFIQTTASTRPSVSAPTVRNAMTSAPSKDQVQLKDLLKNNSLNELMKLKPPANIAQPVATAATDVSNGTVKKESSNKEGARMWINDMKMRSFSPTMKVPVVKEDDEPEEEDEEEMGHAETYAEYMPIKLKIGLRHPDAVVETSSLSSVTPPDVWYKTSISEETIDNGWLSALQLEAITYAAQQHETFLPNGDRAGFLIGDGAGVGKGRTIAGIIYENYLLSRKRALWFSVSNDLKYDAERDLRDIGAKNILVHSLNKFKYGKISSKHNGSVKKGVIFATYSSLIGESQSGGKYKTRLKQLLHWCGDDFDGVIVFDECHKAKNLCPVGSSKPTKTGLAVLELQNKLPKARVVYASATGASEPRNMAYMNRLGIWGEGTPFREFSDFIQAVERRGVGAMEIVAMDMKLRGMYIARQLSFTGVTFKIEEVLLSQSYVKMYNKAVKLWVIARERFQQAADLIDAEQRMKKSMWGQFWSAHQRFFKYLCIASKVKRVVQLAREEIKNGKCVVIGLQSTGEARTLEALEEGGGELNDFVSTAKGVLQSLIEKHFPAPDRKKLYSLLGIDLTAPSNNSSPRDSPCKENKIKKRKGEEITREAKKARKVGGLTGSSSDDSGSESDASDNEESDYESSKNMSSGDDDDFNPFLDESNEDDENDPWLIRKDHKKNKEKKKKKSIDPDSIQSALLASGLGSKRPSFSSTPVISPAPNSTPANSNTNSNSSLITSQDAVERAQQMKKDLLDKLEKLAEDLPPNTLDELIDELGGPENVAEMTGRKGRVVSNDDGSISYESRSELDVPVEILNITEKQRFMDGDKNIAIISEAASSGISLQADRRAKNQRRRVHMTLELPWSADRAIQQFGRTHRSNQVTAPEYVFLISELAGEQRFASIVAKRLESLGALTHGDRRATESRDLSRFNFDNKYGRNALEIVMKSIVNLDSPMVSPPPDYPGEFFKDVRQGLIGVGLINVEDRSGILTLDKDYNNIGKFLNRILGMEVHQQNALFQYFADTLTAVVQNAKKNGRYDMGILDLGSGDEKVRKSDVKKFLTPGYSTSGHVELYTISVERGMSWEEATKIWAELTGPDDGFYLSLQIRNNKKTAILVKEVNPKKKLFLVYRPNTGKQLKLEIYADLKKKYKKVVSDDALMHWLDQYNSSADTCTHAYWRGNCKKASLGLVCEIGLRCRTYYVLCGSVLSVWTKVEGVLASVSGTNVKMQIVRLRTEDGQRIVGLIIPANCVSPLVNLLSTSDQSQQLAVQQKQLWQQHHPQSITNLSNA
UniProt P63098, whole entry, looked up: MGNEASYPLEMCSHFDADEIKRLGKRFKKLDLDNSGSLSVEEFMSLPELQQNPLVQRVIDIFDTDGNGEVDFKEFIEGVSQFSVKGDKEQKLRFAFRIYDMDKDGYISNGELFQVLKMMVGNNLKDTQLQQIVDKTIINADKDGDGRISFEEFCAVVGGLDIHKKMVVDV
UniProt B5ME19, whole entry, looked up: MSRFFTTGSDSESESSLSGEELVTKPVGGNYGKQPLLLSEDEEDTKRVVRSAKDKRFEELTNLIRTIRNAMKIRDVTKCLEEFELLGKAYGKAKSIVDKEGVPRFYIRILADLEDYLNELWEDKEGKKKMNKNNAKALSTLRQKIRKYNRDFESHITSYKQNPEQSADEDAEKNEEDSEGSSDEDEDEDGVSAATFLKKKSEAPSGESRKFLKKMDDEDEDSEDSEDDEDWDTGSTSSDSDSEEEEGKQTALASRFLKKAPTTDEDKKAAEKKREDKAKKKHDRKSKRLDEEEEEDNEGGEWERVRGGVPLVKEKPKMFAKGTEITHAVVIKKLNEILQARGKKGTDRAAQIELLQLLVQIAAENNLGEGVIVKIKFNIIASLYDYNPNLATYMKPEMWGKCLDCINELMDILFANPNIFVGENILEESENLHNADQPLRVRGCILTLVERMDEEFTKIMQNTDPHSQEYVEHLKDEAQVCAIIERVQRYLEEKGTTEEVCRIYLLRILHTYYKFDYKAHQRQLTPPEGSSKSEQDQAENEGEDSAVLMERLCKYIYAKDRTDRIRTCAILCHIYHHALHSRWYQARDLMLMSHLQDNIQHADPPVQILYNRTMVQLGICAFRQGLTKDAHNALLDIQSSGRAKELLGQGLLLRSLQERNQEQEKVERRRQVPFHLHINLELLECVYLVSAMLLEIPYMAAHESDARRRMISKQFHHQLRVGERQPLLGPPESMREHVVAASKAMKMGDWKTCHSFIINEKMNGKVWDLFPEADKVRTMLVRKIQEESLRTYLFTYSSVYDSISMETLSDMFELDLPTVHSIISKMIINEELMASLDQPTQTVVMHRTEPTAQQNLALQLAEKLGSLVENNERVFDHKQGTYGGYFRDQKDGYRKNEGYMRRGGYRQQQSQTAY
UniProt Q16595: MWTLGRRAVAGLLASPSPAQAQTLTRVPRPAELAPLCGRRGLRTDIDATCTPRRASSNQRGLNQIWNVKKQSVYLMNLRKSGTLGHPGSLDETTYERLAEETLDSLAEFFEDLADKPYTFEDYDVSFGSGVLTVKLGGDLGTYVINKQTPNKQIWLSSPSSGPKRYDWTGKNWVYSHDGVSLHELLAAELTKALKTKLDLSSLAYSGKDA
UniProt P55145: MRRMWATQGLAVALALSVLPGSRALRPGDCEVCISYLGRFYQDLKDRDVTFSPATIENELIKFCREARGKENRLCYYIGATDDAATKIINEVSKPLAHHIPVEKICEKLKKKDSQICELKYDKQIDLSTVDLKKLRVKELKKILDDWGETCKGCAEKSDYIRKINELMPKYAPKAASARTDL
UniProt P41223: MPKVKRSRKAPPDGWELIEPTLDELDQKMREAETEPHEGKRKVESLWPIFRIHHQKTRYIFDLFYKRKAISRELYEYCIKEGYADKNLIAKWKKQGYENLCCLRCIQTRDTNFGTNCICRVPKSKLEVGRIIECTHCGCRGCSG
UniProt Q9NUQ7: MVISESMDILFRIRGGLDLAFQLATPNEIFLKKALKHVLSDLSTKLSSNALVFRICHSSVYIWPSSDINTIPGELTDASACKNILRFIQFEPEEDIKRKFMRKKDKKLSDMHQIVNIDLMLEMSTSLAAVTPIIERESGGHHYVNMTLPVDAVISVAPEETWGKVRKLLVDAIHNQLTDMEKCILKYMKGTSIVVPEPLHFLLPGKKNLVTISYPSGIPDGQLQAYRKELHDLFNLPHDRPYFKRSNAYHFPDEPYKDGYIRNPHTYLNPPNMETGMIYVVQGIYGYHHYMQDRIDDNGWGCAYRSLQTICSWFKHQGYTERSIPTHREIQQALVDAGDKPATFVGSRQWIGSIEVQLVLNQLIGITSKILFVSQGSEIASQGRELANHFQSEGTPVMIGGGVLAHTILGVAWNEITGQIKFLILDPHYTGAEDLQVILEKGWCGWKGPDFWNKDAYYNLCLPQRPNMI
UniProt Q92890: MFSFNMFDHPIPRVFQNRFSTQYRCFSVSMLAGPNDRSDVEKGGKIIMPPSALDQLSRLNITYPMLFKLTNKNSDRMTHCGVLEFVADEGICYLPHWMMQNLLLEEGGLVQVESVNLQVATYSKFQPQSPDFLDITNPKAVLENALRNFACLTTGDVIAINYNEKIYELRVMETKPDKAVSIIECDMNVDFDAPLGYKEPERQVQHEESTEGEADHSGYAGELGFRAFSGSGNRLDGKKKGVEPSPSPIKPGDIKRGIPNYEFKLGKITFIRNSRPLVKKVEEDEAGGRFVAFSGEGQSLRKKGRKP
UniProt O75817: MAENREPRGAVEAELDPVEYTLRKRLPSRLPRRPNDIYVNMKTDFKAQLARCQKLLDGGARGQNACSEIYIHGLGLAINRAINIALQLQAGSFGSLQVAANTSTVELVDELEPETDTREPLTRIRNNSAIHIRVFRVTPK

Compound: Nc1ncnc2c1ncn2[C@@H]1O[C@H](COP(=O)(O)OP(=O)(O)NP(=O)(O)O)[C@@H](O)[C@H]1O [adenylyl imidodiphosphate]
Assay: NP40-soluble protein abundance relative to vehicle (solubility fold change) (ratio); higher = more soluble protein in presence of AMP-PNP
In short: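 Data come from three independent experiments in which Dounce-homogenised Jurkat crude lysate was treated at eight concentrations from 0.1 to 10 mM. Treatment ran 10 min at room temperature and then 3 min at 37 °C, after which 0.8% NP40 and benzonase were added for 60 min at 4 °C before ultracentrifugation. The supernatant underwent TMT labelling and LC-MS/MS, and vsn-normalised intensities were expressed as fold change against the detergent-processed vehicle in each replicate.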

Row | Target | NP40-soluble protein abundance (concentration: 0.1mM) | NP40-soluble protein abundance (concentration: 0.5mM)
1 | B9EGE7 and related entries (UniProt Q8TCN5) | 0.969 ± 0.015 | 0.952 ± 0.032
2 | B8ZZU6 and related entries (UniProt P15336) | 1.01 ± 0.02 | 0.998 ± 0.051
3 | C9J2V2 and related entries (UniProt Q9Y6K9) | 1 ± 0.042 | 1 ± 0.056
4 | B4DZG7 and related entries (UniProt P40616) | 1.03 ± 0.036 | 1.06 ± 0.17
5 | B8ZZA8 and related entries (UniProt O94925) | 0.98 ± 0.019 | 0.9869 ± 0.0083
6 | UniProt A4D161 and related entries | 0.975 ± 0.012 | 1.01 ± 0.026
7 | C9IY40 and related entries (UniProt Q5T653) | 1.03 ± 0.02 | 0.9877 ± 0.0046
8 | C9JCW7 and related entries (UniProt Q9BVT8) | 0.979 ± 0.032 | 0.995 ± 0.027
9 | B4DXZ6 and related entries (UniProt P51114) | 1.03 ± 0.031 | 1.04 ± 0.046
10 | CNOT1 (UniProt A5YKK6) | 0.959 ± 0.039 | 0.944 ± 0.011
11 | D6RAM1 and related entries (UniProt P31943) | 1.01 ± 0.028 | 0.992 ± 0.049
12 | UniProt A3KN83 and related entries | 0.991 ± 0.034 | 0.991 ± 0.019
13 | C9JM79 and related entries (UniProt Q13427) | 1.02 ± 0.022 | 1.02 ± 0.026
14 | D3YTA9 and related entries (UniProt H7BYZ3+F6U1T9+P63098+D3YTA9) | 0.967 ± 0.017 | 1.04 ± 0.057
15 | A8MXP9 and related entries (UniProt P43243) | 1.01 ± 0.034 | 1.02 ± 0.041
16 | C9J3D7 and related entries (UniProt Q9UKG9) | 0.985 ± 0.069 | 0.954 ± 0.07
17 | B5ME19 and related entries (UniProt Q99613+B5ME19) | 1.05 ± 0.041 | 1.03 ± 0.038
18 | B3KUS5 and related entries (UniProt Q70CQ3) | 0.9756 ± 0.0069 | 0.974 ± 0.022
19 | C9JAX1 and related entries (UniProt Q16595) | 0.922 ± 0.053 | 0.95 ± 0.048
20 | A8MYT4 and related entries (UniProt Q8NEB9) | 1.023 ± 0.0064 | 0.998 ± 0.039
21 | A2IDC6 and related entries (UniProt Q13084) | 0.991 ± 0.028 | 1.03 ± 0.055
22 | B1AKC9 and related entries (UniProt P29323) | 0.998 ± 0.05 | 0.993 ± 0.018

Row | Target | NP40-soluble protein abundance (concentration: 0.1mM) | NP40-soluble protein abundance (concentration: 0.5mM)
23 | A8K878 and related entries (UniProt P55145) | 0.976 ± 0.027 | 1.03 ± 0.051
24 | C9J9F4 and related entries (UniProt Q9Y4C2) | 0.997 ± 0.036 | 0.981 ± 0.057
25 | C9JKQ2 and related entries (UniProt O43676) | 1 ± 0.08 | 1.05 ± 0.066
26 | C9JVP0 and related entries (UniProt Q9UPW0) | 0.9936 ± 0.0081 | 0.997 ± 0.0039
27 | C9JNV2 and related entries (UniProt P41223) | 1.04 ± 0.019 | 1.04 ± 0.042
28 | D6REA0 and related entries (UniProt O75879) | 0.966 ± 0.018 | 0.9639 ± 0.0049
29 | B1AKJ5 and related entries (UniProt O43847) | 0.9988 ± 0.0069 | 0.999 ± 0.034
30 | D6RGX2 and related entries (UniProt Q9NUQ7) | 1.02 ± 0.0032 | 0.994 ± 0.082
31 | C9JJV1 and related entries (UniProt Q9Y5U2) | 1.01 ± 0.014 | 1.07 ± 0.11
32 | D3DSM0 and related entries (UniProt P05107) | 0.97 ± 0.027 | 0.976 ± 0.057
33 | C9J6N9 and related entries (UniProt Q92890) | 1 ± 0.021 | 0.988 ± 0.016
34 | C9JHH7 and related entries (UniProt Q8WUX1) | 1.014 ± 0.0013 | 1.02 ± 0.014
35 | E5RGN3 and related entries (UniProt O00244) | 0.958 ± 0.01 | 0.996 ± 0.047
36 | C9JYM0 and related entries (UniProt O75817) | 1 ± 0.015 | 0.9923 ± 0.0056
37 | C9IZL5 and related entries (UniProt O00189) | 1.01 ± 0.031 | 1 ± 0.071
38 | E3W994 and related entries (UniProt O75122) | 0.993 ± 0.055 | 0.998 ± 0.026
39 | UniProt A2VDJ0 and related entries | 0.984 ± 0.03 | 0.978 ± 0.035
40 | A8MX75 and related entries (UniProt P18074) | 1.04 ± 0.028 | 1 ± 0.033
41 | UniProt A3KMH1 and related entries | 0.9929 ± 0.0084 | 0.937 ± 0.069
42 | C9IZN5 and related entries (UniProt Q16718) | 1.08 ± 0.029 | 0.97 ± 0.029
43 | D6RIF6 and related entries (UniProt Q9P270) | 0.996 ± 0.03 | 0.99 ± 0.011

Some values from the list:
C9J2V2 and related entries (UniProt Q9Y6K9) | NP40-soluble protein abundance (concentration: 0.5mM): 1 ± 0.056
A8MX75 and related entries (UniProt P18074) | NP40-soluble protein abundance (concentration: 0.1mM): 1.04 ± 0.028
